Data: patent US20190389961A1
Where a chain is given by its changes, count along the chain named. These are yes or no findings as the source states them, for the method shown. Some binding calls cover weakened binding; strength is not graded here.

Legend:
Assay in all cases: flow cytometry, Hek-293T cells expressing the mutant
[1] = biological target: T1, human CD39 mutant 13 (human) (UniProt P49961)
T1 sequence: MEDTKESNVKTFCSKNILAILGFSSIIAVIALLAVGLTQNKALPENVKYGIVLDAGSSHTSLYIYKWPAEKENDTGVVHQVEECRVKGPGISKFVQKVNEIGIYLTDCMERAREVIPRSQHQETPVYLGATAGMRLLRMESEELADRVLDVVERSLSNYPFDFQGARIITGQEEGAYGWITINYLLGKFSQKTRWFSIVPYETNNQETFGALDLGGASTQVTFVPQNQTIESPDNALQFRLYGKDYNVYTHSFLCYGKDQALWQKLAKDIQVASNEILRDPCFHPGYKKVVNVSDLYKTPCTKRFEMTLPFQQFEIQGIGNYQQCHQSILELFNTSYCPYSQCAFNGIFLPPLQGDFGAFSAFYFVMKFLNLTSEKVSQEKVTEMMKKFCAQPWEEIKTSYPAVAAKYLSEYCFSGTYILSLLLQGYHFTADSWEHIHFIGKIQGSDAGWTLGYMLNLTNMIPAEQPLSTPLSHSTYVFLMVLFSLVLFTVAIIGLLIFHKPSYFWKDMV

[2] = biological target: T2, human CD39 mutant 9 (human) (UniProt P49961)
T2 sequence: T1 sequence with K288E, K289A, V290A, E315R, P402A, A403G, A405K, A406E

[3] = biological target: T3, human CD39 mutant 6 (human) (UniProt P49961)
T3 sequence: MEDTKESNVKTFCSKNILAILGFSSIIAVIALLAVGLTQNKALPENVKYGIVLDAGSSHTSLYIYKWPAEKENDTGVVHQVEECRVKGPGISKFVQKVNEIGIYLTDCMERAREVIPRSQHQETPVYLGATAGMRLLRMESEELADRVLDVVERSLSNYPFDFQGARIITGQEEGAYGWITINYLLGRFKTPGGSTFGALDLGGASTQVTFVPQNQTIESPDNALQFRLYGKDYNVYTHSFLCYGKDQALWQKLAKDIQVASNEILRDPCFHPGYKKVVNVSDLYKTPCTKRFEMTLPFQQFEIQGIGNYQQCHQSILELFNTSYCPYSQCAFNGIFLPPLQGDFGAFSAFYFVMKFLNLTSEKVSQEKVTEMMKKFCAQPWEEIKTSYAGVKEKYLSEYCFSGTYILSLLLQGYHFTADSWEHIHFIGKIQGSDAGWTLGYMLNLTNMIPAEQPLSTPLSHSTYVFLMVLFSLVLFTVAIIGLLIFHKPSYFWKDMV

[4] = biological target: T4, human CD39 mutant 16 (human) (UniProt P49961)
T4 sequence: T1 sequence with Q323A, Q324A, Q327A, E331K, P402A, A403G, A405K, A406E

[5] = biological target: T5, human CD39 mutant 10A (human) (UniProt P49961)
T5 sequence: T1 sequence with Q354A, D356S, P402A, A403G, A405K, A406E, E435A, H436Q

binding [1]: binds
binding [2]: binds
binding [3]: binds
binding [4]: binds
binding [5]: binds
B1: antibody I-399 (antibody, V domains shown)
VH: PVQLQQPGAEVVMPGASVKLSCKASGYTFTSFWMNWMRQRPGQGLEWIGEIDPSDFYTNSNQRFKGKATLTVDKSSSTAYMQLSSLTSEDSAVYFCARGDFGWYFDVWGTGTSVTVSS
VL: EIVLTQSPTTMTSSPGEKITFTCSASSSINSNYLHWYQQKPGFSPKLLIYRTSNLASGVPTRFSGSGSGTSYSLTIGTMEAEDVATYYCQQGSSLPRTFGGGTKLEIK
